Experimental data: patent publication US20150023958A1 (SAMSUNG ELECTRONICS, published 2015)
No constants are given. Whether binding was seen depends on the method and setting. Some results given as binding are weak or reduced against the parent protein; the word gives no strength.

Key:
Experiment in all cases: ELISA, ligand coated on plate
human VEGF-C = target: T1, human VEGF-C (human, UniProt P49767 103-227)
T1 construct: Bought protein (R&D Systems); also called VC; Vascular endothelial growth factor C
T1 sequence (looked up): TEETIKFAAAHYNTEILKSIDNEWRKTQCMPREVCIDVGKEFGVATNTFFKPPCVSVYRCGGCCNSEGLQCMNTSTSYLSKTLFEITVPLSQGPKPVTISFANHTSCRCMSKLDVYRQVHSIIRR

human VEGF-D = target: T2, human VEGF-D (human, UniProt O43915 93-201, limits assumed)
T2 construct: Bought protein (R&D Systems); also called Vascular endothelial growth factor D
T2 sequence (looked up): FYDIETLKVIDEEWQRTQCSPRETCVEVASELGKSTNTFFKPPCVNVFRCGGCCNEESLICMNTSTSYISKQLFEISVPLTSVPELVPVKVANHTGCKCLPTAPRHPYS

human Ang2 = target: T3, human Ang2 (human, UniProt O15123 19-496)
T3 construct: Bought protein (R&D Systems); also called A2; angiopoietin 2
T3 sequence (looked up): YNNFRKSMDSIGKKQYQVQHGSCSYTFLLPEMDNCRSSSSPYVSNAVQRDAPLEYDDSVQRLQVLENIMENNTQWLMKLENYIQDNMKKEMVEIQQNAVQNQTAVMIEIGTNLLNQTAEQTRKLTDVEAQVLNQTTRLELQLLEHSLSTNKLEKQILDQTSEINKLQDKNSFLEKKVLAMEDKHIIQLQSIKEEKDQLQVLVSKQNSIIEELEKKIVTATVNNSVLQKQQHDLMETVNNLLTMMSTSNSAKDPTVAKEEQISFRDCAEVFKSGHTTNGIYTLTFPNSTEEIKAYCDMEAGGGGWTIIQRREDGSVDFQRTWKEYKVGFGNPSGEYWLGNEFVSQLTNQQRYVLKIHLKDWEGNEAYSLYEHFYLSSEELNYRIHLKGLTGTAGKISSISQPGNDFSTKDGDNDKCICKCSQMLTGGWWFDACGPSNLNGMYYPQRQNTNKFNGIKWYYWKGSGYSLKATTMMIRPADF

Measured: binding

B1: AV-body 2 (Fc fusion)
chain: AMDLILINSLPLVSDAETSLTCIASGWRPHEPITIGRDFEALMNQHQDPLEVTQDVTREWAKKVVWKREKASKINGAYFCEGRVRGEAIRIRTMKMRQQASFLPATLTMTVDKGDNVNISFKKVLIKEEDAVIYKNGSFIHSVPRHEVPDILEVHLPHAQPQDAGVYSARYIGGNLFTSAFTRLIVRRCEAQKWGPECNHLCTACMNNGVCHEDTGECICPPGFMGRTCEKACELHTFGRTCKERCSGQEGCKSYVFCLPDPYGCSCATGWKGLQCNEACHPGFYGPDCKLRCSCNNGEMCDRFQGCLCSPGWQGLQCEREGIEFMQSKVLLAVALWLCVETRAASDYRSPFIASVSDQHGVVYITENKNKTVVIPCLGSISNLNVSLCARYPEKRFVPDGNRISWDSKKGFTIPSYMISYAGMVFCEAKINDESYQSIMYIVVVVGEQPFINKPDTLLVNRKDAMWVPCLVSIPGLNVTLRSQSSVLWPDGQEVVWDDRRGMLVSTPLLHDALYLQCETTWGDQDFLSNPFLVHITG
notes: also called fusion polypeptide AV-body 2; Tie2-ECD/R2-2/R3-2-Fc; not shown: Fc fragment of human IgG1, fused to the C-terminus through the pFUSE-hIgG1-Fc1 vector (InvivoGen)
binds: all assays above
